Measured values from PubChem BioAssay AID504444 (National Center for Advancing Translational Sciences (NCATS), 2011).
The whole screen tested about 360,000 compounds, of which about 7,500 (2.1%) were called active. Inconclusive results, whose numbers are uncertain, are shown with a selection of clear calls. Calls come from the whole dose curve; as a rule, active = well fitted inhibition curve with a large enough effect; inconclusive = small, poorly fitted or top-dose-only effect, or effect the other way; inactive = flat fitted curve, though single readings scatter. Potencies of inconclusive entries are doubtful fits and often do not repeat.
% is set by controls: 0 for no effect and ±100 for the full control effect; potency is the fitted concentration of half-maximal effect.

Test: Nrf2 qHTS screen for inhibitors; note: nearly all actives have a fitted effect of over 60% in size
Details: A549 ARE-Fluc reporter, luciferase luminescence, 18-24 h; activity change, negative = inhibition: at 46 µM (top of the series)
Procedure, shortened: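 Nrf2 activity is the BugLite luminescence, read 15 min after reagent at room temperature, following CellTiter-Fluor cytotoxicity readout (30 min, 37C). Compound titrations were applied for 18-24 h to 5000 A549 ARE_Fluc cells/well in 5% FBS OPTI-MEM.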
In the case of CCCNS(=O)(=O)c1cc(-c2nn3c(C)nnc3c3ccccc23)ccc1C, the Potency is reported as inconclusive: 2.91 µM [falling, full curve]. For CCOC(=O)c1ccccc1NC(=O)CN(c1cccc(C)c1C)S(=O)(=O)c1ccccc1, the “activity change, negative = inhibition” value was inactive: -20.1%. For CC(=O)Nc1cccc(NC(=O)COc2ccc3c(c2)OCO3)c1, the Potency was inconclusive: 32.6 µM [activator, single point]. In the case of O=c1c2c(nc(NCCO)n1CC1CCCCC1)-c1ccccc1CC21CCCC1, the Potency is reported as inconclusive: 20.6 µM [falling, partial curve, poor fit]. With CCOC(=O)Cc1csc(NC(=O)CSc2nnc(-c3ccncc3)n2Cc2ccco2)n1 the Potency was inconclusive: 11.6 µM [falling, partial curve, poor fit]. With COc1ccc(-c2ccc(-c3nnc(Cc4ccc(OC)c(OC)c4)o3)cc2)cc1 the Potency was inconclusive: 0.058 µM [falling, full curve, poor fit]. With Cc1ccc(OCC(=O)NCCCNC(=O)c2cccnc2)cc1C the Potency was active: 5.17 µM. In the case of O=S(=O)(c1ccccc1)N1CCN(c2nc(C3CC3)nc3ccccc23)CC1, the “activity change, negative = inhibition” value is reported as inactive: -10%. With CS(=O)(=O)c1ccc(S(=O)CC(=O)Oc2ccc(Cl)cc2)c([N+](=O)[O-])c1 (centres undefined) the Potency was inconclusive: 29.1 µM [falling, single point]. With COc1cc(/C=C(\C#N)c2nc3ccccc3[nH]2)ccc1Oc1ccc([N+](=O)[O-])cn1 the Potency was inconclusive: 18.4 µM [falling, single point]. In the case of CC1CCN(S(=O)(=O)c2ccc(NC(=O)c3cccs3)cc2)CC1, the Potency is reported as inconclusive: 11.6 µM [falling, partial curve, poor fit]. For CCC(=O)NC(c1ccc(Br)o1)c1cc(Cl)c2cccnc2c1O (centres undefined), the Potency was inconclusive: 18.4 µM [falling, single point]. In the case of CC[C@@]12C(=O)N(c3cccc(Cl)c3)C(=O)N1[C@H](c1ccc(Br)cc1)[C@@H]1C(=O)N(C(C)(C)C)C(=O)[C@@H]12, the Potency is reported as inconclusive: 32.6 µM [falling, single point]. In the case of CC1=C(C(=O)OC2CCCC2)C(c2c(Cl)cccc2Cl)CC(=O)N1 (centres undefined), the Potency is reported as inconclusive: 16.4 µM [falling, single point]. With Cc1cccc(Cl)c1NC(=O)N1CCN(c2ccnc3cc(Cl)ccc23)CC1 the Potency was active: 9.2 µM. With Cc1cc(C(=O)N2CCN(c3ccccc3)CC2)c2c(C)nn(-c3cccc(F)c3)c2n1 the Potency was inconclusive: 29.1 µM [falling, single point]. In the case of CCc1ccc2oc(=O)cc(CN3CCN(c4ccc(F)cc4)CC3)c2c1, the Potency is reported as inconclusive: 29.1 µM [falling, single point]. With CCOC(=O)C1=C(C)Nc2ncnn2C1c1cccs1 (centres undefined) the Potency was inconclusive: 20.6 µM [falling, single point]. In the case of COc1ccc(C(=O)O/N=C(\N)c2ccccn2)c(OC)c1, the Potency is reported as inconclusive: 1.64 µM [activator, full curve]. In the case of COc1ccc(NS(=O)(=O)c2ccc(N3CCOCC3)c(NC(=O)c3ccco3)c2)cc1, the Potency is reported as inconclusive: 16.4 µM [falling, single point]. With COc1ccc(-n2c(-c3ccc(Cl)cc3)c[n+]3c2CCCCC3)cc1 the Potency was inconclusive: 29.1 µM [falling, single point]. For Cc1cccc(C(=O)OCC(=O)NCc2cccs2)c1, the “activity change, negative = inhibition” value was inactive: 4.82%. In the case of O=C(OCc1ccccc1)C1=NNC2C(=O)N(Cc3ccccc3)C(=O)C12 (centres undefined), the Potency is reported as inconclusive: 32.6 µM [activator, single point]. In the case of COc1ccc(-c2coc3cc(O[C@@H]4O[C@H](CO)[C@@H](O)[C@H](O)[C@H]4O)ccc3c2=O)cc1, the Potency is reported as inconclusive: 18.4 µM [activator, partial curve, poor fit]. For CC(=O)NC(=S)Nc1sc2c(c1C(N)=O)CCC(C)C2 (centres undefined), the Potency was inconclusive: 0.517 µM [activator, full curve]. In the case of CN(C)S(=O)(=O)c1ccc(Cl)c(NC(=O)CSc2nc3c(cc2C#N)C(=O)CCC3)c1, the Potency is reported as active: 14.6 µM. With CCSc1nnc(SCC(=O)c2c(N)n(C)c(=O)n(C)c2=O)s1 the Potency was active: 20.6 µM. In the case of COc1ccc(-c2nc3ccccc3n3c(-c4cccc(C)c4)c4c(=O)n(C)c(=O)n(C)c4c23)cc1OC, the “activity change, negative = inhibition” value is reported as inactive: -11.9%. In the case of O=C(CCS(=O)(=O)c1cc(Br)cc2c1N(C(=O)C1CC1)CC2)N1CCN(c2cccc(Cl)c2)CC1, the “activity change, negative = inhibition” value is reported as inactive: -6.25%. With Cc1nn(CC(=O)NCCc2ccccc2)c(C)c1[N+](=O)[O-] the Potency was inconclusive: 20.6 µM [activator, partial curve]. In the case of O=S(=O)(NC1CCCCC1N1CCN(c2ccc(F)cc2)CC1)c1ccccc1 (centres undefined), the Potency is reported as inconclusive: 18.4 µM [falling, partial curve, poor fit]. With COc1ccc(-c2cn(Cc3ccc(C)cc3)nn2)cc1 the Potency was inconclusive: 20.6 µM [activator, partial curve]. With Cc1ccc(CNC(=O)Nc2ccc(Cl)cc2)cc1 the Potency was inconclusive: 2.59 µM [activator, partial curve, poor fit]. In the case of CCCCC1(C)Nc2ccccc2-c2nc3ccccc3n21 (centres undefined), the Potency is reported as inconclusive: 3.66 µM [activator, partial curve, poor fit]. For CN(C)S(=O)(=O)N1CCC(Oc2ccc(C(=O)NCc3cnn(C)c3)cc2)CC1, the Potency was inconclusive: 20.6 µM [falling, single point]. In the case of O=C(COC(=O)c1ccc([N+](=O)[O-])cc1)Nc1ccc(Cl)cn1, the Potency is reported as inconclusive: 3.66 µM [falling, partial curve, poor fit]. In the case of N#C/C(=N\Nc1cccc(F)c1)C(=N)N1CCCCCC1, the Potency is reported as inconclusive: 4.61 µM [activator, full curve]. For O=C(CSc1ccccc1)NCc1ccc(F)cc1, the Potency was inconclusive: 20.6 µM [activator, partial curve, poor fit]. For Cc1ccc(N2C(=O)c3n[nH]c(C)c3C2c2ccc(Cl)cc2)cc1 (centres undefined), the Potency was inconclusive: 2.31 µM [activator, full curve, poor fit]. With CC(=O)c1ccc(OCc2cc(C(=O)NC3CCCCC3)no2)cc1 the Potency was inconclusive: 14.6 µM [activator, partial curve, poor fit]. In the case of Cc1ccc(O)c(C2=Nc3ccccc3C2(C)C)c1, the Potency is reported as inconclusive: 23.1 µM [activator, single point]. In the case of CCOC(=O)c1[nH]c2c(c1Cc1ccccc1OC)C(=O)CC(c1ccc(OC)cc1)C2 (centres undefined), the Potency is reported as inconclusive: 9.2 µM [falling, partial curve]. For Cc1ccc(CNC(=O)c2nn(-c3ccc(Cl)cc3)nc2CO)cc1, the Potency was inconclusive: 5.8 µM [falling, single point]. With Cc1cc(C(=O)O)ccc1-c1ccc(CO)o1 the Potency was inconclusive: 20.6 µM [activator, single point]. In the case of COc1ccccc1-c1nnc(NC(=O)c2ccc(S(=O)(=O)N(C)C)cc2)o1, the Potency is reported as inconclusive: 18.4 µM [falling, single point]. For CCOC(=O)c1ccccc1NC(=O)Cn1ncc2c1-c1ccccc1OC2, the “activity change, negative = inhibition” value was inactive: -16.4%. For CCOc1ccc(C2=CS/C(=C(\C#N)c3nnc4n3CCCCC4)N2CC)cc1, the Potency was inconclusive: 14.6 µM [falling, single point]. For Cc1ccn2c(NCc3ccccc3)c(-c3cccc(SC4CCCCC4)c3)nc2c1, the Potency was inconclusive: 29.1 µM [falling, single point]. For CCOC(=O)c1cnn(-c2nc3c(C)cccc3s2)c1C, the Potency was inconclusive: 14.6 µM [activator, partial curve, poor fit]. For C[n+]1cc(-c2ccccc2)n2c1CCCCC2, the Potency was inconclusive: 14.6 µM [falling, partial curve, poor fit]. For COC(=O)c1ccc(N2CCN(S(=O)(=O)c3ccc(Br)cc3)CC2)c([N+](=O)[O-])c1, the Potency was inconclusive: 5.8 µM [falling, full curve, poor fit]. In the case of Cn1c(=O)c2c([nH]c(=S)n2CCCc2ccccc2)n(C)c1=O, the “activity change, negative = inhibition” value is reported as inactive: 7.51%. For Cc1ccccc1-c1nnc(SCC(=O)Nc2cccnc2Cl)o1, the Potency was inconclusive: 8.2 µM [activator, partial curve]. With CC1(C)Cc2c(cnn2-c2ccc(F)cc2)C(NC(=O)c2ccoc2)C1 (centres undefined) the Potency was inconclusive: 0.82 µM [falling, full curve, poor fit]. For CCOC(=O)c1ccc(N2C(=O)c3[nH]nc(-c4ccc(C)cc4)c3C2c2cccs2)cc1 (centres undefined), the Potency was active: 23.1 µM. In the case of CSc1ncc(C(=O)Nc2ccccc2C(F)(F)F)c(-c2ccccc2)n1, the Potency is reported as inconclusive: 1.84 µM [activator, partial curve, poor fit]. In the case of COc1ccc(-c2ccc3c(c2)S(=O)(=O)c2cccc(C(=O)NCc4cccc(OC(F)(F)F)c4)c2C3=O)cc1OC, the Potency is reported as inconclusive: 5.17 µM [falling, full curve]. In the case of NC(=O)CCC(NS(=O)(=O)c1ccc(Cl)cc1)C(=O)NCc1ccc(Cl)cc1 (centres undefined), the Potency is reported as inconclusive: 0.103 µM [falling, full curve, poor fit]. In the case of N=c1scc(-c2ccccc2)n1/N=C/c1ccco1, the “activity change, negative = inhibition” value is reported as inactive: 3.25%. In the case of O=C(NC1CCCCC1)N1CCN(C(c2ccccc2)c2ccccc2)CC1, the Potency is reported as inconclusive: 29.1 µM [falling, single point]. For Nc1ccn(Cc2cccc(F)c2)n1, the “activity change, negative = inhibition” value was inactive: -16.5%. With Cc1ccc(C)c(Cn2c(=O)n(CCCCC(=O)NCc3ccc4c(c3)OCO4)c(=O)c3ccccc32)c1 the “activity change, negative = inhibition” value was inactive: -13.4%. With CCCCn1cc(S(=O)(=O)c2cc(C)ccc2C)c(=O)c2cc(F)c(N3CCC(C)CC3)cc21 the “activity change, negative = inhibition” value was inactive: 0.81%. With Cc1nc2c(Br)cc(Br)cc2c(=O)n1-c1ccccc1NC1OCC(O)C(O)C1O (centres undefined) the Potency was inconclusive: 29.1 µM [falling, single point].
